One compound from patent US20160039742A1, “EXTRACTION OF TRAMADOL FROM NAUCLEA LATIFOLIA SMITH” ([…] FOURIER - GRENOBLE 1, priority 2013, published 2016) can be followed below.

The test system of this assay is acetic acid-induced abdominal constrictions in mice. Nature of the assay: Acetic acid induced abdominal constriction (writhing) test. The class given is in vivo. The conditions noted are these: 5 mg/kg s.c. How it is done:
Experiments in mice were performed on C57BL/6 male mice (Janvier, Le-Genest-St-Isle, France) weighting 26-35 g, housed in individual cages with food and water ad libitum and kept in a 12 hours/12 hours light-dark cycle. All animal experimentations were carried out in accordance with the rules of the European Committee Council Directive of Nov. 24, 1986 (86/609/EEC) and all procedures were approved by the local department of the veterinarian services for the use and care of animals (agreement #380612). All efforts were made to minimize animal suffering and reduce the number of animals used in each series of experiments.
One hour after oral administration of these substances, each animal was injected i.p. with 0.6% acetic acid in a volume of 10 ml/kg body weight. After acetic acid injection, the number of stretching or writhing responses per animal was recorded during 30 min after a latency period of 5 min. Inhibition was expressed in percentage.
Data were analyzed by two-way Anova followed by Tukey's (HSD) multi-comparison test.
(In general: An intraperitoneal irritant provokes the stretching counted in writhing tests.)

Molecules are shown by their SMILES.

As for `CN1CC[C@]23c4c5ccc(O)c4O[C@H]2[C@@H](O)C=C[C@H]3[C@H]1C5` [Morphine, reference compound], the “Acetic acid-induced writhing inhibition (%)” value is on record as 59.2%.
